According to paper PMC5833612:
Construct, isoform or probe ends are uncertain for at least one entry. Weaker means in comparison with the reference protein, sequence or condition of that experiment. Protein sequences can lack the tags named with them. At least one verdict was read from the data and is not stated in words by the source.

Target: T1, GST-FOXM1-DBD (UniProt Q08050)
T1 sequence (looked up): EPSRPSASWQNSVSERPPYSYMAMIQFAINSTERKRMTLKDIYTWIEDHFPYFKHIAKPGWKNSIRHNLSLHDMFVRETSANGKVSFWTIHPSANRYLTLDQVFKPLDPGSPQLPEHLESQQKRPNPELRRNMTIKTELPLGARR
Assay: EMSA
Conditions: 5' iSpC3 spacer between dye and DNA, EMSA: 20 mM Tris pH 8.0, 50 mM KCl, 5 mM MgCl2, 1 mM DTT, 10 uL, 1 h at room temperature, 6% native gel at 4 C, recombinant protein, residues 221-365, label: 5' 6-FAM on forward strand

AAACAAACAAACAATC (double strand) [FOXM1 dsDNA consensus oligonucleotide]
binding result (2 uM protein, 100 nM DNA, 5 mM Mg2+, no honokiol): binds | binding result (100 uM honokiol, 2 uM protein, 100 nM DNA, 5 mM Mg2+): binds more weakly | binding result (2,2-dihydroxybiphenyl (no interference, data not shown)): binds | binding result (2-allylphenol (no interference, data not shown)): binds | binding result (O-eugenol (no interference, data not shown)): binds | binding result (eugenol (no interference, data not shown)): binds
